The assay can be described thus: qHTS Assay for Lipid Storage Modulators in Drosophila S3 Cells.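 On cell number change: cells counted by Cell Tracker Red CMTPX staining in the red channel.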 The settings on record: BODIPY lipid droplet fluorescence, 18-24 h; for cell number change: measured here: cell count max response, cells fed with added oleic acid. Put shortly: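 Drosophila S3 cells loaded with oleic acid (400 uM, as added) and compounds at several concentrations; lipid droplets imaged by 488-nm laser-scanning cytometry, 500–530 nm intensity and object ratio to cell channel. Percent activity normalized to 20 uM Triacsin C.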
In general terms: qHTS replaces the single test concentration by a dilution series.

Where [1] appears, read: measured here: lipid fluorescence (Fed channel) AC50, cells fed with added oleic acid.
Setting [2] is: measured here: cell number channel AC50, cells fed with added oleic acid.

Each structure is given as a SMILES string. The list shows a part of the results. The main result of the screen is listed elsewhere. These columns were measured beside it and carry no call. Compounds called inactive in the main read-out are mostly missing here. The note in brackets gives the kind of curve behind each potency; many fits are weak.

On to `COc1cccc(CNC(=O)c2cc3ccccn3n2)c1`, for which the concentration at half-maximal activity (AC50) – broadly, the concentration at which the activity in the assay is half-maximal – under setting [1] was 0.00517 µM [rising, full curve, poor fit].
Regarding `CCc1ccccc1NC(=O)Cn1nnc(-c2cccnc2)n1`, the cell number change was -9.64%. Also, the AC50 under setting [1] was 18.4 µM [rising, single point].
Regarding `CSc1ccccc1NC(=O)CO/N=C(\C)c1cc2ccccc2o1`, the cell number change was -32.5%. Also, under setting [2], the AC50 is 1.03 µM [falling, full curve, poor fit].
With `O=Cc1cccn1-c1ncc(Br)cn1`, the cell number change amounted to 21.3%.
For the molecule `NS(=O)(=O)c1cccc(NC(=O)c2cccc(-c3ccc(O)cc3)c2)c1`, the cell number change was 21%. Also, the AC50 under setting [1] is 6.51 µM [falling, single point].
Regarding `CSc1nnc(SCc2nc3sc(C(=O)O)c(C)c3c(=O)[nH]2)s1`, the cell number change is -43.2%. In addition, the AC50 under setting [2] was 16.4 µM [falling, single point]. Also, under setting [1], the AC50 is 20.6 µM [falling, single point].
In the case of `CCOC(=O)N1CCC(NCCNC(=O)c2cccc(F)c2)CC1`, the cell number change turned out to be 2.52%. The AC50 under setting [2] is 0.00461 µM [falling, full curve, poor fit]. For the same molecule, the concentration at half-maximal activity (AC50) under setting [1] was 0.0058 µM [falling, full curve, poor fit].
Turning to `O=Cc1cc(N=Nc2ccccc2Cl)ccc1O`, the cell number change was -51.5%. The AC50 under setting [2] was 18.4 µM [falling, single point]. Under setting [1], the half-maximal activity concentration (AC50) was 20.6 µM [falling, partial curve].
For the molecule `O=c1oc(CCCO)cc2ccc(/C=C/c3cccc([N+](=O)[O-])c3)cc12`, the cell number change was -37.6%. Moreover, the concentration at half-maximal activity (AC50) under setting [2] is 4.61 µM [falling, single point].
In the case of `Cc1nc2ccccc2c2c1CC(C(C)(Cl)Br)O2` (stereo not given), the cell number change was -43%. Also, under setting [2], the concentration at half-maximal activity (AC50) was 29.1 µM [falling, single point]. The half-maximal activity concentration (AC50) under setting [1] was 16.4 µM [falling, partial curve].
In the case of `CS(=O)(=O)Nc1ccc(C(=O)Nc2ccccc2Sc2ccccc2)cc1`, the cell number change was found to be 10.9%. Further, the AC50 under setting [2] is 0.82 µM [falling, single point]. For the same molecule, the AC50 under setting [1] is 1.3 µM [falling, single point].
For the molecule `CCCSC(=O)N(CC)CC(=O)Nc1c(CC)cccc1CC`, the cell number change is -6.49%.
Turning to `CN(Cc1ccccc1)C1=CC(=[N+]2CCCC2)CC(C)(C)C1`, the cell number change was -22.5%. The concentration at half-maximal activity (AC50) under setting [1] was 29.1 µM [falling, single point].
Regarding `CC1CC(C)CN(S(=O)(=O)c2ccc(NC(=O)CCNC(=O)c3ccc([N+](=O)[O-])cc3)cc2)C1` (stereo not given), the cell number change amounted to 1.76%.
Turning to `Cc1cc2c(nn1)CCC/C2=N\O`, the cell number change was -39.6%. In addition, under setting [2], the AC50 is 29.1 µM [falling, single point]. Also, the AC50 under setting [1] was 16.4 µM [falling, single point].
As for `Cc1cc(OC(C)C(=O)N2CCN(c3ccc(F)cc3)CC2)c2c(C)c(C)c(=O)oc2c1` (stereo not given), the cell number change was 20.3%. Also, under setting [1], the AC50 is 29.1 µM [rising, single point].
Consider `CC(C)(C)c1cc[n+](-c2[nH]c(=O)sc2/C=N/NC(=O)c2ccccc2[O-])cc1`, for which the cell number change worked out at 5.71%.
Still for that read-out and setting: under `Cc1cc(S(=O)(=O)Nc2nc(CN3CCOCC3)nc3sc4c(c23)CCC4)cc(C)c1C` stands 17.5%.
As to `COc1ccccc1C(=O)Nc1ccc(C(=O)Nc2ccccc2C(=O)O)cc1`, the cell number change is 1.62%.
For `CC(=O)Nc1ccc(-c2csc(NNC(=O)c3ccccc3)n2)cc1`, the cell number change was 19.1%. In addition, the AC50 under setting [1] was 29.1 µM [rising, single point].
On to `CNc1c(NS(=O)(=O)c2ccc(OC)c(Cl)c2)c(=O)oc2ccccc12`, for which the AC50 under setting [1] was 14.6 µM [falling, partial curve].
As for `O=C1Nc2ccccc2C(O)(C(=O)NC2CC2)N1c1ccc(Cl)c(Cl)c1` (stereo not given), the cell number change is -5.3%.
Regarding `O=C(CN(CCc1ccccc1)S(=O)(=O)c1ccc(Br)cc1)N/N=C/c1ccc2c(c1)OCO2`, the cell number change is 25.8%. Further, the AC50 under setting [2] is 0.411 µM [rising, full curve, poor fit]. Further, under setting [1], the AC50 is 0.291 µM [rising, full curve, poor fit].
With `Cc1ccc(Cl)c(OCCCN(C)Cc2ccccc2)c1`, the cell number change was -60.7%. Also, under setting [2], the AC50 is 20.6 µM [falling, single point]. Also, the half-maximal activity concentration (AC50) under setting [1] was 18.4 µM [falling, single point].
Take `C=C1CCC[C@]2(C)C[C@H]3OC(=O)C(CN(Cc4ccc(OC)c(OC)c4)CC(C)O)[C@H]3CC12` (stereo not given in full): the cell number change worked out at 3.52%. Also, under setting [1], the AC50 is 4.61 µM [falling, single point].
For the molecule `CN(C(=O)CCc1nc2ccccc2s1)c1ccccc1`, the AC50 is 2.06 µM [rising, partial curve] under setting [2] and 2.06 µM [rising, partial curve] under setting [1].
On to `CC(=O)NC(CSC(CC(=O)c1ccco1)c1ccc(C)cc1)C(=O)O` (stereo not given), for which the cell number change was determined as 16.5%.
Turning to `O=C(N/N=C/c1ccc([N+](=O)[O-])cc1)c1[nH]ncc1Br`, the AC50 under setting [1] is 18.4 µM [rising, single point].
`N/C(=N\OC(=O)CSc1ccccc1)c1ccncc1`: under setting [1], the AC50 is 2.31 µM [rising, partial curve, poor fit].
In the case of `Cc1ccnc(NC(=O)c2oc3ccccc3c2C)c1`, the cell number change was 5.27%. In addition, under setting [1], the AC50 was 7.31 µM [falling, partial curve].
With `CCN(CC)S(=O)(=O)c1ccc(C(=O)N2CCN(c3ncccn3)CC2)cc1`, the cell number change was -23.7%. Moreover, under setting [1], the AC50 is 0.282 µM [falling, partial curve, poor fit].
Take `COc1ccccc1NC(=O)C1CCN(c2ncnc3c2nc2n3CCCCC2)CC1`: the cell number change worked out at 2.64%. Moreover, under setting [2], the AC50 was 0.411 µM [rising, full curve].
Regarding `O=C1CC(c2ccccc2)=Nc2ccc(Br)cc2N1`, the AC50 under setting [2] was 0.00461 µM [rising, full curve, poor fit].
Take `CCOC(=O)N/N=C/c1cn(CCCOc2ccccc2)c2ccccc12`: the cell number change is -16.7%. Also, the AC50 under setting [1] was 1.46 µM [falling, partial curve].
With `CC(C)c1[nH]nc2c1C(C(C)C)C(C#N)=C(N)O2` (stereo not given), the cell number change stood at 9.93%. Also, the AC50 under setting [1] is 29.1 µM [rising, single point].
With `c1ccc(CSC2=NCCCN2)cc1`, the cell number change was -24.6%. Moreover, the AC50 under setting [1] is 29.1 µM [falling, single point].
Take `O=C(C1CCC(=O)N(C2CC2)C1)N(CCO)Cc1ccccc1` (stereo not given): the cell number change amounted to 11.3%. Also, the AC50 under setting [1] was 0.291 µM [falling, partial curve, poor fit].
Turning to `CC1=NN(C(=O)c2ccc(C)cc2)C(O)(C(F)(F)OC(F)(F)F)C1` (stereo not given), the cell number change came to 16.1%. For the same molecule, the AC50 under setting [1] was 29.1 µM [rising, single point].
For `Cc1cccc(C)c1NC(=O)CN(C)CC(=O)Nc1sc2c(c1C(N)=O)CCC2`, the cell number change came out at 25%. In addition, the AC50 under setting [1] was 29.1 µM [falling, single point].
As to `O=C(Nc1ccc(F)cc1Cl)c1ccc2c(=O)n3c(nc2c1)CCC3`, the cell number change is -15%.
On to `FC(F)(F)c1cnc(-n2cc[nH]c2=S)c(Cl)c1`, for which the cell number change amounted to 14.2%. In addition, the AC50 under setting [1] is 0.366 µM [falling, full curve].
In the case of `CC1(C)C[C@@H]2C[C@@](C)(CN2C(=O)c2cc(COc3cccc(C(F)(F)F)c3)on2)C1`, the cell number change is -15%. Under setting [1], the AC50 was 20.6 µM [falling, single point].
Regarding `Cc1ccc(S(=O)(=O)N2CCN(C(=O)c3ccc4ccccc4n3)CC2)c(C)c1`, the cell number change was -48.6%. Besides, the AC50 under setting [2] was 0.00461 µM [falling, full curve, poor fit]. Also, the AC50 under setting [1] is 1.84 µM [falling, partial curve].
Consider `COc1ccc(/C=N/NC(=S)Nc2cc(S(=O)(=O)N3CCOCC3)ccc2N2CCOCC2)cc1O`, for which the cell number change was 92.6%. Further, the AC50 under setting [2] is 9.2 µM [rising, single point].
Take `COc1ccc(OCC(=O)Nc2ccccc2C(=O)NC2CC2)cc1`: the cell number change was -11.6%. In addition, the AC50 under setting [1] was 13 µM [falling, partial curve, poor fit].
On to `Nc1cc(C(=O)OCC(=O)N2CCN(C(=O)COC(=O)c3ccc(Cl)c(N)c3)CC2)ccc1Cl`, for which the cell number change was -25%. In addition, under setting [1], the AC50 was 0.651 µM [rising, single point].
For `COc1ccccc1CNC(=O)CSc1nc2nc(C)cc(C)n2n1`, the cell number change came to 3.6%. Also, the AC50 under setting [1] is 6.51 µM [rising, single point].
Take `CCc1cc2c(=O)c(-c3ccc4c(c3)OCCO4)coc2c(CN2CCCCC2C)c1O` (stereo not given): the cell number change is -12%. The AC50 under setting [1] was 0.517 µM [rising, single point].
As to `Cc1ccc(OCCC(=O)Nc2ccc3c(c2)OCCCO3)cc1`, the cell number change is -13%. Also, the concentration at half-maximal activity (AC50) under setting [1] was 0.58 µM [rising, single point].
Turning to `Cc1ccc(C2=N/C(=C\c3c(C)nn(-c4ccccc4)c3N3CCCC3)C(=O)O2)cc1`, the cell number change amounted to 7.54%. Moreover, the AC50 under setting [1] was 6.51 µM [rising, single point].
In the case of `COc1ccccc1C1C(C#N)=C(N)Oc2c1c(-c1ccccc1)nn2-c1ccccc1` (stereo not given), the cell number change was -0.635%. Moreover, the AC50 under setting [2] was 6.51 µM [falling, single point].
In the case of `CCOP(=O)(OCC)C(Nc1ccccc1)c1cc(OC)ccc1OC` (stereo not given), the cell number change turned out to be 3.18%.
The same measure, in the same setting: next, `CC(=O)N1CCN(Cc2nc3ccc(Cl)cc3n2CCO)CC1`: 1.32%.
`CC(=O)Nc1ccc(C(=O)COC(=O)C2CCCCC2)c(F)c1`: the cell number change was 10.2%. For the same molecule, the AC50 under setting [2] is 6.51 µM [rising, single point]. Further, under setting [1], the AC50 was 3.66 µM [rising, single point].
In the case of `Cc1cc(=O)oc2c3c(cc(OCC(=O)NCc4cccnc4)c12)OC(C)(C)CC3`, the cell number change came out at 0.647%.
Turning to `Cc1onc(-c2c(Cl)cccc2Cl)c1C(=O)NC(C)(C)CO`, the cell number change is -5.07%. For the same molecule, the AC50 under setting [1] was 16.4 µM [falling, partial curve].
On to `COC(=O)CN(C)C(=O)CC1C(=O)NCCN1CC(C)(C)C` (stereo not given), for which the cell number change is -35.2%. For the same molecule, the AC50 under setting [2] is 6.51 µM [falling, full curve, poor fit].
Take `O=C(COc1ccc(S(=O)(=O)NC2CCCCC2)cc1Cl)N1CCN(c2ccccc2)CC1`: the cell number change amounted to 69.2%. Further, the AC50 under setting [2] is 7.31 µM [rising, partial curve]. In addition, the AC50 under setting [1] was 6.51 µM [rising, single point].
On to `CCc1cc2c(Sc3nc4ccccc4s3)ncnc2s1`, for which the cell number change was -6.05%. The AC50 under setting [1] is 32.6 µM [rising, partial curve, poor fit].
Consider `CNC(=S)N1CCN(c2cccc(OC)c2)CC1`, for which the cell number change stood at 19.7%. Under setting [1], the AC50 was 25.9 µM [rising, single point].
Take `COc1ccc(CC2(CO)CCN(Cc3nc(C(C)C)cs3)CC2)cc1`: the cell number change is -20.1%.
